In article PMC3519677:
Results are given in words; binding and its absence hold for the method and conditions named. In cells and extracts the contact can be indirect. Binding calls can cover weak binding; strength is not graded here. For some assays here: Sequences can lack the tags named with a protein.

Experiments:
[1] = biological target: T1, tongue cancer resistance-associated protein 1 (TCRP1), endogenous (human (endogenous in Tca8113/PYM)) (UniProt Q92567); assay: co-IP; Tca8113/PYM cell lysates (modified TNE buffer: 50 mM Tris pH 8.0, 150 mM NaCl, 1% Nonidet P-40) precipitated overnight at 4°C with anti-TCRP1 antibody or control IgG, protein G-agarose; immunoblot
T1 sequence: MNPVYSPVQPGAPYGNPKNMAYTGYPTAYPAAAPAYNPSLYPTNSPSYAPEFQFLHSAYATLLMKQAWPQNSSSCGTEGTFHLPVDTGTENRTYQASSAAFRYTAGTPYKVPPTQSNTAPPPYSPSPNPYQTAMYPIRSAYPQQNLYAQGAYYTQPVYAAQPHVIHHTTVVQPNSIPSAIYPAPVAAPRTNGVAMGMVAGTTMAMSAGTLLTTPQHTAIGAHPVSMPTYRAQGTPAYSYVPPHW

[2] = biological target: T2, GST-tagged TCRP1 (human) (UniProt Q92567); assay: pull-down; ten micrograms of GST or GST-tagged TCRP1 incubated with Tca8113/PYM cell lysates for 4 h at 4°C; immunoblot with antibodies against GST, Akt or MT1X; only the target purified
T2 sequence: T1 sequence

- binding [1]: binds
- binding [2]: binds
Substance: Akt (human (endogenous in Tca8113/PYM))
